The list does not hold the whole screen: its compounds were picked by chemical class. Other doses and runs of a compound may be missing. T/C is the treated group as % of the vehicle group. Some doses have a count of surviving animals in place of a T/C: the source holds a T/C of zero for them, seemingly a mark for toxic or unscored doses. Counts of survivors are from the toxicity check (mostly the fifth day) where no day follows; animals may have died later. Schedules are NCI's codes, taken here to give the interval after Q, in days (D) or hours (H), and the number of doses after X. For survival time, the PubChem record calls one and a half times the control and up active, and a quarter to a half above the control has no call in these data; cut-offs in other NCI protocols can differ. Some T/C values carry the count of animals alive at the toxicity check (mostly the fifth day); where neither a count nor a note follows, no animal had died by that day. Some entries hold several experiments; their values stand side by side, smallest first. Some schedule codes hold Z or #, which are not explained here.
Tested on: L1210 leukemia ip in BDF1 mice, survival T/C
Assay: NCI In Vivo Anticancer Drug Screen. Data for tumor model L1210 Leukemia (intraperitoneal) in B6D2F1 (BDF1) mice
Conditions: T/C endpoint: mean survival time, higher T/C = longer survival
[1] = dose: 400.0 mg/kg/injection, schedule: Q01DX001 (ip), vehicle: water
[2] = dose: 400.0 mg/kg/injection, schedule: Q01DX001 (iv), vehicle: water

Compound: NC(=O)c1[nH]cnc1/N=N\N(CCCl)CCCl
- T/C (dose: 300.0 mg/kg/injection, schedule: Q04DX005 (oral), vehicle: steroid suspending solution): 100 % of control
- T/C (dose: 300.0 mg/kg/injection, schedule: Q04DX Z (ip), vehicle: carboxymethylcellulose (CMC)): 240 and 310 % of control
- T/C (dose: 300.0 mg/kg/injection, schedule: Q04DX Z (sc), vehicle: carboxymethylcellulose (CMC)): 316 % of control
- T/C (dose: 300.0 mg/kg/injection, schedule: Q06HX012 (oral), vehicle: steroid suspending solution): 190 % of control
- T/C (dose: 300.0 mg/kg/injection, schedule: Q06HX020 (oral), vehicle: steroid suspending solution): 101 % of control
- T/C (dose: 300.0 mg/kg/injection, schedule: Q08DX002 (ip), vehicle: carboxymethylcellulose (CMC)): 287 and 304 % of control
- T/C (dose: 300.0 mg/kg/injection, schedule: Q08DX003 (ip), vehicle: carboxymethylcellulose (CMC)): 600 % of control
- T/C (dose: 300.0 mg/kg/injection, schedule: Q08DX003 (oral), vehicle: carboxymethylcellulose (CMC)): 147 % of control
- T/C (dose: 300.0 mg/kg/injection, schedule: Q08DX003 (oral), vehicle: steroid suspending solution): 93 % of control
- T/C (dose: 300.0 mg/kg/injection, schedule: Q08DX Z (ip), vehicle: carboxymethylcellulose (CMC)): 198 and 435 % of control
- T/C (dose: 300.0 mg/kg/injection, schedule: Q## X001 (ip), vehicle: carboxymethylcellulose (CMC)): 374 % of control
- T/C (dose: 300.0 mg/kg/injection, schedule: Q## X009 (oral), vehicle: carboxymethylcellulose (CMC)): 200 % of control
- T/C (dose: 336.0 mg/kg/injection, schedule: Q03DX Z (ip), vehicle: carboxymethylcellulose (CMC)): 177 % of control
- T/C (dose: 350.0 mg/kg/injection, schedule: Q01DX001 (ip), vehicle: carboxymethylcellulose (CMC)): 250, 259, 275, 281, 315, 611 % of control
- T/C (dose: 350.0 mg/kg/injection, schedule: Q04DX002 (ip), vehicle: carboxymethylcellulose (CMC)): 611 % of control
- T/C (dose: 350.0 mg/kg/injection, schedule: Q04DX003 (ip), vehicle: carboxymethylcellulose (CMC)): 233 % of control [9 of 10 alive]
- survivor count (dose: 350.0 mg/kg/injection, schedule: Q04DX004 (ip), vehicle: carboxymethylcellulose (CMC)): 0 of 10
- T/C (dose: 350.0 mg/kg/injection, schedule: Q04DX005 (ip), vehicle: carboxymethylcellulose (CMC)): 227 % of control
- T/C (dose: 350.0 mg/kg/injection, schedule: Q07DX Z (ip), vehicle: carboxymethylcellulose (CMC)): 343 % of control
- T/C (dose: 350.0 mg/kg/injection, schedule: Q## X001 (ip), vehicle: carboxymethylcellulose (CMC)): 403 % of control
- T/C (dose: 360.0 mg/kg/injection, schedule: Q01DX001 (ip), vehicle: other): 103 % of control
- T/C (dose: 360.0 mg/kg/injection, schedule: Q01DX001 (ip), vehicle: steroid suspending solution): 116 % of control
- T/C (dose: 375.0 mg/kg/injection, schedule: Q01DX001 (ip), vehicle: carboxymethylcellulose (CMC)): 244 % of control
- T/C (dose: 378.0 mg/kg/injection, schedule: Q01DX Z (im), vehicle: carboxymethylcellulose (CMC)): 124 % of control
- T/C (dose: 378.0 mg/kg/injection, schedule: Q01DX Z (oral), vehicle: carboxymethylcellulose (CMC)): 154 % of control
- T/C (dose: 378.0 mg/kg/injection, schedule: Q01DX Z (sc), vehicle: carboxymethylcellulose (CMC)): 134 % of control
- T/C (dose: 392.0 mg/kg/injection, schedule: Q01DX001 (ip), vehicle: steroid suspending solution): 558 % of control
- T/C (dose: 400.0 mg/kg/injection, schedule: Q01DX001 (ip), vehicle: carboxymethylcellulose (CMC)): 200, 281, 287, 335, 352, 395 % of control
- T/C (dose: 400.0 mg/kg/injection, schedule: Q01DX001 (ip), vehicle: clinical formulation): 90 [4 of 6 alive] and 321 % of control
- T/C (dose: 400.0 mg/kg/injection, schedule: Q01DX001 (ip), vehicle: saline): 270 and 280 % of control
- T/C (dose: 400.0 mg/kg/injection, schedule: Q01DX001 (ip), vehicle: steroid suspending solution, evaluated on day 6): 375 % of control
- T/C (dose: 400.0 mg/kg/injection, schedule: Q01DX001 (ip), vehicle: steroid suspending solution, evaluated on day 28): 145 % of control
- T/C (dose: 400.0 mg/kg/injection, schedule: Q01DX001 (ip), vehicle: steroid suspending solution, evaluated on day 60): 302, 326, 372, 401, 559 % of control
- T/C [1]: 230, 515, 624 % of control
- survivor count [1]: 2 of 6
- T/C [2]: 475 and 616 % of control
- survivor count [2]: 0 of 6
- T/C (dose: 400.0 mg/kg/injection, schedule: Q01DX001 (oral), vehicle: carboxymethylcellulose (CMC)): 201 % of control
- T/C (dose: 400.0 mg/kg/injection, schedule: Q01DX005 (ip), vehicle: carboxymethylcellulose (CMC)): 129 and 173 % of control [9 of 10 alive]
- T/C (dose: 400.0 mg/kg/injection, schedule: Q01DX009 (oral), vehicle: carboxymethylcellulose (CMC)): 98 % of control
- T/C (dose: 400.0 mg/kg/injection, schedule: Q01DX Z (oral), vehicle: carboxymethylcellulose (CMC)): 94 % of control
- T/C (dose: 400.0 mg/kg/injection, schedule: Q03HX003 (ip), vehicle: carboxymethylcellulose (CMC)): 369 % of control
- T/C (dose: 400.0 mg/kg/injection, schedule: Q04DX002 (ip), vehicle: water): 207 and 258 % of control
- T/C (dose: 400.0 mg/kg/injection, schedule: Q04DX003 (ip), vehicle: carboxymethylcellulose (CMC)): 373 % of control
- T/C (dose: 400.0 mg/kg/injection, schedule: Q04DX003 (ip), vehicle: water): 101 % of control
- T/C (dose: 400.0 mg/kg/injection, schedule: Q04DX003 (oral), vehicle: carboxymethylcellulose (CMC)): 479 % of control
- T/C (dose: 400.0 mg/kg/injection, schedule: Q04DX005 (ip), vehicle: carboxymethylcellulose (CMC)): 126, 218, 287 % of control
- T/C (dose: 400.0 mg/kg/injection, schedule: Q04DX Z (oral), vehicle: carboxymethylcellulose (CMC)): 127 % of control
- T/C (dose: 400.0 mg/kg/injection, schedule: Q08DX002 (ip), vehicle: carboxymethylcellulose (CMC)): 403 % of control
- T/C (dose: 400.0 mg/kg/injection, schedule: Q08DX002 (ip), vehicle: water): 105 % of control
- T/C (dose: 400.0 mg/kg/injection, schedule: Q08DX002 (oral), vehicle: carboxymethylcellulose (CMC)): 324 % of control
- T/C (dose: 400.0 mg/kg/injection, schedule: Q08DX003 (ip), vehicle: carboxymethylcellulose (CMC)): 193 % of control
- T/C (dose: 400.0 mg/kg/injection, schedule: Q08DX Z (oral), vehicle: carboxymethylcellulose (CMC)): 304 % of control
- T/C (dose: 400.0 mg/kg/injection, schedule: Q## X001 (ip), vehicle: carboxymethylcellulose (CMC)): 420 % of control
- T/C (dose: 400.0 mg/kg/injection, schedule: Q## X003 (ip), vehicle: carboxymethylcellulose (CMC)): 226 % of control
- T/C (dose: 415.0 mg/kg/injection, schedule: Q01DX001 (ip), vehicle: saline): 123 % of control
- T/C (dose: 415.0 mg/kg/injection, schedule: Q01DX001 (ip), vehicle: steroid suspending solution): 160 % of control
- T/C (dose: 450.0 mg/kg/injection, schedule: Q01DX001 (ip), vehicle: carboxymethylcellulose (CMC)): 278, 344, 374 % of control
- T/C (dose: 450.0 mg/kg/injection, schedule: Q## X001 (ip), vehicle: carboxymethylcellulose (CMC)): 400 % of control
- T/C (dose: 500.0 mg/kg/injection, schedule: Q01DX001 (ip), vehicle: carboxymethylcellulose (CMC)): 231, 255, 310, 322, 337, 365, 392, 605 % of control
- T/C (dose: 500.0 mg/kg/injection, schedule: Q04DX003 (ip), vehicle: carboxymethylcellulose (CMC)): 108 % of control
- T/C (dose: 500.0 mg/kg/injection, schedule: Q04DX005 (ip), vehicle: carboxymethylcellulose (CMC)): 195 % of control
